Data taken from ChEMBL document CHEMBL3988442, “University of Dundee, Small-Polar-MMV Screening Library” (2021).

Results are given as percent effect.
How 0% and 100% were set is not recorded. Most values in the screen are low, and negative values occur.
Compounds were drawn at random from those tested, without regard to their results.
Two or more numbers in one place are separate tests of the same structure; such repeats can differ widely.

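Phenotypic screen: M. tuberculosis growth, cholesterol and DPPC medium, 4 days; the read-out is not stated. Concentration: 50 µM. The record gives no direction; compounds that gave an IC50 in retests scored well above the rest, so higher reads as more growth inhibition. Of about 69,000 compounds tested this way, about 370 (0.54%) reached 50% or more in at least one test.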

* CCn1nc(C)c2c1cnn2CC(=O)Nc1ccc(OC)cc1C : -10.77%
* CCOC(=O)CN1CCC(C(=O)c2cc(F)ccc2F)CC1 : 9.317%
* COc1ccc(C(NCc2cccc(C#N)c2)C2CC2)cc1 (centres unmarked) : 7.477%
* Cc1nc(C2CCCN2CCCS(=O)(=O)c2ccccc2)no1 (centres unmarked) : 14.09%
* CCc1ccsc1C(=O)N1CCN(CC(C)(C)O)CC1 : -4.576%
* Cc1noc(C)c1CCC(=O)N1CCCN(Cc2cccs2)CC1 : 16.17%
* CC(=O)N1CCC(Oc2ccc(Cl)cc2C(=O)N2CCCO2)CC1 : -1.737%
* COc1cccc2sc(OC3CN(C(=O)C4=COCCO4)C3)nc12 : 30.23%
* O=C(O)C(F)(F)F.O=C(O)C(F)(F)F.O=C(O)C(F)(F)F.c1cncc(COCc2cncc3c2CCN(Cc2ccoc2)C3)c1 : 19.02%
* CN(C)C(C)(C)CNCc1cn(C)nc1-c1cccnc1.Cl : 2.536%
* CCn1c(SCC(N)=O)nnc1C(C)NC(=O)c1ccc(Cl)cc1 (centres unmarked) : -19.3%
* CN(C)C(=O)CNC(=O)c1ccc2c(-c3nccs3)noc2c1 : -0.7638%
* Cc1cc(NCc2csc(-c3ccco3)n2)ccc1C(N)=O : -20.35%
* COc1cccn(CC(=O)N(C)Cc2ccoc2)c1=O : 4.774%
* Cc1ccccc1C1CCN(CCNC(=O)CS(C)(=O)=O)C1 (centres unmarked) : -5.659%
* CN(CCc1ccccn1)C(=O)Nc1cccnc1-n1cccn1 : 6.903%
* COc1ncc(-c2nccn2CCN(C)C)cn1 : -3.779%
* NC(=O)c1cccc(CCNC(=O)N2CCCC2)c1 : 14.27% & 1.764%
* COc1c(CNC2CCCc3ccccc32)c(C(C)C)nn1C (centres unmarked) : -2.173%
* c1cc(CCN2CCC(c3n[nH]c(C4CC4)n3)CC2)ccn1 : -39.38%
* Cc1ncc2c(n1)CCCC2NC(=O)c1ccncc1 (centres unmarked) : -23.67%
* O=C(CCn1ccc2ccccc21)N1CCC(Nc2cccnn2)CC1 : 5.294%
* Cc1ccc(N(CCC#N)C(=O)CN2CCCC2c2cccs2)cc1 (centres unmarked) : 18.4%
* CCC(Sc1ncc(CO)n1C)c1ccccc1 (centres unmarked) : 5.871%
* Cc1ccc(C(=O)N2CCCCC2CN(C)C)cc1 (centres unmarked) : 1.106%
* COc1cc(C)c(CN2CCC3(CC2)C(C(=O)O)CC(=O)N3C)cc1C (centres unmarked) : -9.171%
* O=C1COc2cc(C(=O)NS(=O)(=O)c3ccc(F)cc3)ccc2N1 : -1.728%
* O=C(O)C(F)(F)F.[H][C@]12CCC[C@@]1(COc1cccnc1)CN(C(=O)C1CCOCC1)C2 : -20.82%
* O=C(Nc1cccc2c1CCCC2)c1cccnc1N1CCCNCC1 : -13.78%
* CC(C)c1nc(CN(C)C2CCN(CCc3ccncc3)C2)no1 (centres unmarked) : -7.936%
* Cc1ccc(CN(C)CC2(O)CCCN(C)C2)o1 (centres unmarked) : -13.31%
* CCCC(C)N(C)Cc1nnc(-c2ccc(Br)s2)o1 (centres unmarked) : 54.19% & 42.92%
* CC(O)CN1CCN(C(=O)c2ccnc(N(C)C)c2)CC1 (centres unmarked) : 2.785%
* Cn1ccnc1CN1C[C@@H](CN2CCCCC2)[C@@H](CO)C1 : -16.67%
* CC(Nc1ccn(CCS(C)(=O)=O)n1)c1ccc(C#N)cc1 (centres unmarked) : 7.463%
* CCOc1cc(C)nc(N2CCN(C(=O)c3ccncc3)CC2)n1 : 1.928%
* CCN(CC)S(=O)(=O)N1CCCC1C(=O)N1CCSCC1 (centres unmarked) : 5.221%
* Cc1ccc2c(n1)N(CCN(C)C)CCN(C(=O)c1cccs1)C2.O=C(O)C(F)(F)F.O=C(O)C(F)(F)F : -27.56% & -10.43%
* Nc1cc2c(nn1)CCN(C(=O)C1CCc3ccccc31)C2 (centres unmarked) : -1.177%
* COC(=O)c1ccc(N2CCN(Cc3csc(C)n3)CC2)nn1 : -4.81%
* Cc1ccc(O)c(C(=O)N2CCOCC2c2c(C)nn(C)c2C)c1 (centres unmarked) : -4.479%